Reference: the supplement of paper PMC12823440, “Inhibitors supercharge kinase turnover through native proteolytic circuits” (Nature, 2025)
Structures can show the parent of a compound that is named as a salt. The list shows a part of the results. Hit calls seldom repeat between salt and free forms of one compound.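 In K562 cells expressing nanoluciferase-fused kinases, luminescence was recorded at 4 h intervals between 2 and 18 h, normalized as percent of control with DMSO at 100% and a positive control at 0%. A significant (2 sigma) signal drop marks a time point as decreased. The authors' rule for a hit is not shown and takes in more than the number of time points.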

Amino acid sequences for entries named in this document (tags omitted). A change or cut given only in a name is not applied to a line headed by its entry.
UniProt Q15208: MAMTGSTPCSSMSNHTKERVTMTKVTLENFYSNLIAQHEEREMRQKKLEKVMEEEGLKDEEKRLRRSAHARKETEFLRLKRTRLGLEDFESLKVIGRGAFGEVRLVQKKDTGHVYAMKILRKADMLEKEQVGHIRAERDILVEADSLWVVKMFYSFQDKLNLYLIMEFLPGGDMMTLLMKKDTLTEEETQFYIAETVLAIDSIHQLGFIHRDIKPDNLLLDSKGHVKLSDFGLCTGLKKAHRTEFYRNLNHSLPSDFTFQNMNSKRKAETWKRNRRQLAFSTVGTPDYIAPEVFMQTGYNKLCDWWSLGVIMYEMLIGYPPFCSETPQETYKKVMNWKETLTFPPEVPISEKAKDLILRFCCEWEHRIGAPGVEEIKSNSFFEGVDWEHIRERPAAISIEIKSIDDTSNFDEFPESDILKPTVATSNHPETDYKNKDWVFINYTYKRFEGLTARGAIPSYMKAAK
UniProt P42680: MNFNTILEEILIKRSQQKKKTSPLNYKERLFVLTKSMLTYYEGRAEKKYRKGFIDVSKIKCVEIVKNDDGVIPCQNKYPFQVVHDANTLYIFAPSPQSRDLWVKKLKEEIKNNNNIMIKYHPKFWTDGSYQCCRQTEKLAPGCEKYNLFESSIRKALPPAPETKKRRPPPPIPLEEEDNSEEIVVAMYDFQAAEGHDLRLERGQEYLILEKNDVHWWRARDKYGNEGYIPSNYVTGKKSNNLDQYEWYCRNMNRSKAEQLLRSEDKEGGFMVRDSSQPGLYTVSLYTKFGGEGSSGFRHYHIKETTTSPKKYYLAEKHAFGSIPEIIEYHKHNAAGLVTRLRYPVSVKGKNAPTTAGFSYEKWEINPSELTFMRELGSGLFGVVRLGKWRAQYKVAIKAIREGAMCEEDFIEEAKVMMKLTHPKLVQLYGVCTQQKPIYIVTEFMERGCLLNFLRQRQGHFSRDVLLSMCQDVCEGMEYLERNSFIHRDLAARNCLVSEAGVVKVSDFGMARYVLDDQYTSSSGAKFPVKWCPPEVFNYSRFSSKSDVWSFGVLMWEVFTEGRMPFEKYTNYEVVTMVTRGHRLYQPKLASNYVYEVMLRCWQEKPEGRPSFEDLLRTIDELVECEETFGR
UniProt P29597: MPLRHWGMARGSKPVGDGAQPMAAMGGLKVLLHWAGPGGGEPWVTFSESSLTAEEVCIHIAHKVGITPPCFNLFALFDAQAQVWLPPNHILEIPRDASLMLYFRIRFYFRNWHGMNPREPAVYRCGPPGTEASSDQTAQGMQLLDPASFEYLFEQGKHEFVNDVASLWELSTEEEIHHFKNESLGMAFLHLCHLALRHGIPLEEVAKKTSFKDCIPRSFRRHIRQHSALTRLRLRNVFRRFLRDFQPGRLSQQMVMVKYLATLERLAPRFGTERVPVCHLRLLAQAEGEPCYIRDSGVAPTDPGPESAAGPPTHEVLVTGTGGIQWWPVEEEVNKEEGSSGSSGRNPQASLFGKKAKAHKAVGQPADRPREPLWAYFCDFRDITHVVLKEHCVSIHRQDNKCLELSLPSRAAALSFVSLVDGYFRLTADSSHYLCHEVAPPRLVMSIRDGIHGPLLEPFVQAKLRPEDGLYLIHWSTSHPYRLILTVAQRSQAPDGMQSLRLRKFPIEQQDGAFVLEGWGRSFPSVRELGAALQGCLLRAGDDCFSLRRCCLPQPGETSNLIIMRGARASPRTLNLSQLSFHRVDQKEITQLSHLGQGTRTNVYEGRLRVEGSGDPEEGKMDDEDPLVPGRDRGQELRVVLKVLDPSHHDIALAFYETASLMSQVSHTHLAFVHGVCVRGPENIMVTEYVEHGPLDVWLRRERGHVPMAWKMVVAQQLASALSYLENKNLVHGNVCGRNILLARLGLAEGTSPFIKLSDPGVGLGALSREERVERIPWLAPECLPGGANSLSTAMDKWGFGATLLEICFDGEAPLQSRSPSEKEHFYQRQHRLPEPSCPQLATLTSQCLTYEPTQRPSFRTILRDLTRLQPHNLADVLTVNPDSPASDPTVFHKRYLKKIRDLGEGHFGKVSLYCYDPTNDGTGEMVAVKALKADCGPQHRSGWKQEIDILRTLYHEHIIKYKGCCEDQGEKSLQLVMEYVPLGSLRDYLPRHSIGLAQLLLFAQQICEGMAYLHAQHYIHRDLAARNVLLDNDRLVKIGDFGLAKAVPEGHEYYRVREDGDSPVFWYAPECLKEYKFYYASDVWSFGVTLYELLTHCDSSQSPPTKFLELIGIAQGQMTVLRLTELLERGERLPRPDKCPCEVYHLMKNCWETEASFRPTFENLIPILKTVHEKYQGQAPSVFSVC
UniProt Q6PHR2: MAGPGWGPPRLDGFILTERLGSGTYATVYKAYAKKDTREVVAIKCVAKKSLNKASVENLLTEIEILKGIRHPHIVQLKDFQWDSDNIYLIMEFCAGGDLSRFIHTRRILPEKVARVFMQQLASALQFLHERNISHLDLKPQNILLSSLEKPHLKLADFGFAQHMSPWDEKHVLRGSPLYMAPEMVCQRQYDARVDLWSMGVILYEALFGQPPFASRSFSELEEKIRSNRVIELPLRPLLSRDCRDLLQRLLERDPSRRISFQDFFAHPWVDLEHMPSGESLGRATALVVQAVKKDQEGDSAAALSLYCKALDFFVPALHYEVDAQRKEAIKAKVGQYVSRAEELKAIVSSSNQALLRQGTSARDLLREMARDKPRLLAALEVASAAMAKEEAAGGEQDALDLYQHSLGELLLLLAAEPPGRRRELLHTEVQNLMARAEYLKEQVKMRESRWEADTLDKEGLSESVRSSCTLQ
UniProt P07947, whole entry, looked up: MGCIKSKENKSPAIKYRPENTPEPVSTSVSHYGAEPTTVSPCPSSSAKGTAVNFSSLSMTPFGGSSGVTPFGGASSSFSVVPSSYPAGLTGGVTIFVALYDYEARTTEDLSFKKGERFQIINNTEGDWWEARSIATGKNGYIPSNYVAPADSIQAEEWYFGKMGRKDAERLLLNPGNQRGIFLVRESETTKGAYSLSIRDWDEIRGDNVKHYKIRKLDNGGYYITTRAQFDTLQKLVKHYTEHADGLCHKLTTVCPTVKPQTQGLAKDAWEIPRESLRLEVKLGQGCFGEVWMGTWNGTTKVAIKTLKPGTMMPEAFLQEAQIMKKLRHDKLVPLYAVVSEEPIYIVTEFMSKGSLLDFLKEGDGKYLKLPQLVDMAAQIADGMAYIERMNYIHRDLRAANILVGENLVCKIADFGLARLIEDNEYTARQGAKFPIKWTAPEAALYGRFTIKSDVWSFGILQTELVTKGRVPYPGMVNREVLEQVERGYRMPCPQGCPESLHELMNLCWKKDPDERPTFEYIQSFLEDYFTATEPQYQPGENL
UniProt P43403: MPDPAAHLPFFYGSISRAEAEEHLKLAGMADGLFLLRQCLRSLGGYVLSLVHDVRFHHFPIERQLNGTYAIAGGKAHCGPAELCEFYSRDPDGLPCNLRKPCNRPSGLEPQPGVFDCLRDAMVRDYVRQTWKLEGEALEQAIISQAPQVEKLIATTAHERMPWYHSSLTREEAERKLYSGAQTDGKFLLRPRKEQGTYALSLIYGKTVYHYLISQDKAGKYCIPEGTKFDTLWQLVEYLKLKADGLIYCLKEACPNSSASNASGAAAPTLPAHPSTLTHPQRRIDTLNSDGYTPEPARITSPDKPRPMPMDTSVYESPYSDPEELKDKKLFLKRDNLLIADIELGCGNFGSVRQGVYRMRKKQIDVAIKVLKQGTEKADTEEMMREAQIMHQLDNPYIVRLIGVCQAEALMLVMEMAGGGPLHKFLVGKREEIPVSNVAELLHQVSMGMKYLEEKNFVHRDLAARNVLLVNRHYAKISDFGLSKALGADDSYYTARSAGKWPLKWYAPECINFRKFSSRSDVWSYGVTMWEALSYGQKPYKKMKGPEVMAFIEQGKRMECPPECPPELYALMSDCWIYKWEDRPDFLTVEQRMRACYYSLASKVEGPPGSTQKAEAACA
UniProt P00519, whole entry: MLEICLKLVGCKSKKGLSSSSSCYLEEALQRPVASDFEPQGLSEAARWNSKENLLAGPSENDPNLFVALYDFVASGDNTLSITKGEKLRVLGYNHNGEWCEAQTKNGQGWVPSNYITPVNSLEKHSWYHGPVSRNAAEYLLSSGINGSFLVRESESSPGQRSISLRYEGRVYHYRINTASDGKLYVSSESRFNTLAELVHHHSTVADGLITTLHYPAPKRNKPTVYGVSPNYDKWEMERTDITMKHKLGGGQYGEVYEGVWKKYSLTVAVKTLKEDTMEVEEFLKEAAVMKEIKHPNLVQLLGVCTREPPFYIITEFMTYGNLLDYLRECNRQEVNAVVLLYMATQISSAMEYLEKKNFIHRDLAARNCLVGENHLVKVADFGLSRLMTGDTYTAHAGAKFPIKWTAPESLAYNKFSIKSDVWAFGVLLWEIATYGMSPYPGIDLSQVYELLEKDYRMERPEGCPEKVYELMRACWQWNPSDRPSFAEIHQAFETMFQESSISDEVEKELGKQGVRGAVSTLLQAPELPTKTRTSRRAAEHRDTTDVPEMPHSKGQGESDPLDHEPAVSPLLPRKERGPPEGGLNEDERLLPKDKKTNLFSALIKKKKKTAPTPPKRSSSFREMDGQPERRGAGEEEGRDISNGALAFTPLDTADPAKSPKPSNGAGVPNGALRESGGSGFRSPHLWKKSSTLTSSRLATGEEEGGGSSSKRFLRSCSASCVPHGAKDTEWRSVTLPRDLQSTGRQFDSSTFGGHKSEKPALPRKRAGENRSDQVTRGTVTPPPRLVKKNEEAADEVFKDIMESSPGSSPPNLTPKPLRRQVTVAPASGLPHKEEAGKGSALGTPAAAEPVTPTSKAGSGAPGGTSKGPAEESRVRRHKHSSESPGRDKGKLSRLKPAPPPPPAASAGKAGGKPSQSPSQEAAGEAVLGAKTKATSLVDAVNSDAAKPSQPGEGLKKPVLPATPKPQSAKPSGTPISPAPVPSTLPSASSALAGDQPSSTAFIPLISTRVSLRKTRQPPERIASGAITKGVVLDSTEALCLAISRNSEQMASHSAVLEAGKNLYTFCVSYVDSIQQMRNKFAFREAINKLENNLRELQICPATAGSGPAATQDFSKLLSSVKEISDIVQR
UniProt P31749: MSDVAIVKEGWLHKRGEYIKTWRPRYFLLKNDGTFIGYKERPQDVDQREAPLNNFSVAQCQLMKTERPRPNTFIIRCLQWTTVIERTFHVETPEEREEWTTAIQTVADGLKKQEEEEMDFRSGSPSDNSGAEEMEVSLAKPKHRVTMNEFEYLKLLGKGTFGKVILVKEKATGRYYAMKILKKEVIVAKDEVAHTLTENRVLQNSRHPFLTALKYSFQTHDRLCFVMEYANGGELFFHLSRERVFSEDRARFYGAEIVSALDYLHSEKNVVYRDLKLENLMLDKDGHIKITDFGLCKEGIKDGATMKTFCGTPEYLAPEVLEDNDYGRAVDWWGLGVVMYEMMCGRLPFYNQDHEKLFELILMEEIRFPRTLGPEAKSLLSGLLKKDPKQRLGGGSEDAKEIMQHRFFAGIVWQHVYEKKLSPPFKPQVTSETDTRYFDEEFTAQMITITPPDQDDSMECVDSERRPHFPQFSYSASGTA

Assays:
Details in all cases: K562; 2-18 h
STK38 = STK38 (UniProt Q15208); assay: kinase-Nluc reporter destabilization hit call (1 = scored as downregulated) (binary); higher = compound decreases kinase abundance
SYK = SYK (UniProt P43405); assay: as above
TEC = TEC (UniProt P42680); assay: as above
TYK2 = TYK2 (UniProt P29597); assay: as above
ULK3 = ULK3 (UniProt Q6PHR2); assay: as above
YES1 = YES1 (UniProt P07947); assay: as above
ZAK = ZAK (UniProt Q9NYL2); assay: as above
ZAP70 = ZAP70 (UniProt P43403); assay: as above
ABL1 = ABL1 (UniProt P00519); assay: number of time points (of 5) at which kinase-Nluc abundance scored as decreased, DMSO-normalised (count); higher = more persistent destabilization
AKT1 = AKT1 (UniProt P31749); assay: as above

CCn1c(=O)c(-c2ccc(-c3cncs3)cc2Cl)cc2cnc(Nc3ccc(N4CCN(C)CC4)cc3)nc21 (2.5 µM)
inactive: kinase-Nluc reporter destabilization hit call (STK38) 0 | kinase-Nluc reporter destabilization hit call (SYK) 0 | kinase-Nluc reporter destabilization hit call (TEC) 0 | kinase-Nluc reporter destabilization hit call (TYK2) 0 | kinase-Nluc reporter destabilization hit call (ULK3) 0 | kinase-Nluc reporter destabilization hit call (YES1) 0 | kinase-Nluc reporter destabilization hit call (ZAK) 0 | kinase-Nluc reporter destabilization hit call (ZAP70) 0
0: number of time points (ABL1) | number of time points (AKT1)

C#CCN(C)C(=O)CCNc1nc(N2CCN(C(=O)C=C)CC2)c2cc(Cl)c(-c3c(O)cccc3F)c(F)c2n1 [ARS-1323-alkyne] (2.5 µM)
0: number of time points (ABL1) | number of time points (AKT1)
inactive: kinase-Nluc reporter destabilization hit call (STK38) 0 | kinase-Nluc reporter destabilization hit call (SYK) 0 | kinase-Nluc reporter destabilization hit call (TEC) 0 | kinase-Nluc reporter destabilization hit call (TYK2) 0 | kinase-Nluc reporter destabilization hit call (ULK3) 0 | kinase-Nluc reporter destabilization hit call (YES1) 0 | kinase-Nluc reporter destabilization hit call (ZAK) 0 | kinase-Nluc reporter destabilization hit call (ZAP70) 0

CC(=O)c1c(C)c2cnc(Nc3ccc(N4CCN(CCCCNC(=O)COc5cccc6c5C(=O)N(C5CCC(=O)NC5=O)C6=O)CC4)cn3)nc2n(C2CCCC2)c1=O (stereo not given) (10 µM)
inactive: kinase-Nluc reporter destabilization hit call (STK38) 0 | kinase-Nluc reporter destabilization hit call (SYK) 0 | kinase-Nluc reporter destabilization hit call (TEC) 0 | kinase-Nluc reporter destabilization hit call (TYK2) 0 | kinase-Nluc reporter destabilization hit call (ULK3) 0 | kinase-Nluc reporter destabilization hit call (YES1) 0 | kinase-Nluc reporter destabilization hit call (ZAK) 0 | kinase-Nluc reporter destabilization hit call (ZAP70) 0
0: number of time points (ABL1) | number of time points (AKT1)

COCCOc1ccc(-c2cn(-c3ccccc3)c3nc[nH]c(=O)c23)cc1 (10 µM)
inactive: kinase-Nluc reporter destabilization hit call (STK38) 0 | kinase-Nluc reporter destabilization hit call (SYK) 0 | kinase-Nluc reporter destabilization hit call (TEC) 0 | kinase-Nluc reporter destabilization hit call (TYK2) 0 | kinase-Nluc reporter destabilization hit call (ULK3) 0 | kinase-Nluc reporter destabilization hit call (YES1) 0 | kinase-Nluc reporter destabilization hit call (ZAK) 0 | kinase-Nluc reporter destabilization hit call (ZAP70) 0
0: number of time points (ABL1) | number of time points (AKT1)

N#Cc1c(-c2ccccc2)cc(-c2cc(Br)ccc2O)[nH]c1=O (10 µM)
0: number of time points (ABL1) | number of time points (AKT1)
inactive: kinase-Nluc reporter destabilization hit call (STK38) 0 | kinase-Nluc reporter destabilization hit call (SYK) 0 | kinase-Nluc reporter destabilization hit call (TEC) 0 | kinase-Nluc reporter destabilization hit call (TYK2) 0 | kinase-Nluc reporter destabilization hit call (ULK3) 0 | kinase-Nluc reporter destabilization hit call (YES1) 0 | kinase-Nluc reporter destabilization hit call (ZAK) 0 | kinase-Nluc reporter destabilization hit call (ZAP70) 0

Cc1c(CN2CCN(C(=O)[C@H](C)O)CC2)sc2c(N3CCOCC3)nc(-c3cnc(N)nc3)nc12 [Apitolisib] (10 µM)
inactive: kinase-Nluc reporter destabilization hit call (STK38) 0 | kinase-Nluc reporter destabilization hit call (SYK) 0 | kinase-Nluc reporter destabilization hit call (TEC) 0 | kinase-Nluc reporter destabilization hit call (TYK2) 0 | kinase-Nluc reporter destabilization hit call (ULK3) 0 | kinase-Nluc reporter destabilization hit call (YES1) 0 | kinase-Nluc reporter destabilization hit call (ZAK) 0 | kinase-Nluc reporter destabilization hit call (ZAP70) 0
5: number of time points (ABL1)
0: number of time points (AKT1)

NCCN1CCN(C/C=C/C(=O)N2CCC[C@@H](n3nc(-c4ccc(Oc5ccccc5)cc4)c4c(N)ncnc43)C2)CC1 [Ibrutinib-MPEA] (10 µM)
inactive: kinase-Nluc reporter destabilization hit call (STK38) 0 | kinase-Nluc reporter destabilization hit call (SYK) 0 | kinase-Nluc reporter destabilization hit call (TEC) 0 | kinase-Nluc reporter destabilization hit call (TYK2) 0 | kinase-Nluc reporter destabilization hit call (ULK3) 0 | kinase-Nluc reporter destabilization hit call (YES1) 0 | kinase-Nluc reporter destabilization hit call (ZAK) 0 | kinase-Nluc reporter destabilization hit call (ZAP70) 0
0: number of time points (ABL1) | number of time points (AKT1)

C=C1C(=O)O[C@@H]2C[C@@]3(C)CCC[C@H](C)C3=C[C@H]12 [Alantolactone] (10 µM)
0: number of time points (ABL1) | number of time points (AKT1)
inactive: kinase-Nluc reporter destabilization hit call (STK38) 0 | kinase-Nluc reporter destabilization hit call (SYK) 0 | kinase-Nluc reporter destabilization hit call (TEC) 0 | kinase-Nluc reporter destabilization hit call (TYK2) 0 | kinase-Nluc reporter destabilization hit call (ULK3) 0 | kinase-Nluc reporter destabilization hit call (YES1) 0 | kinase-Nluc reporter destabilization hit call (ZAK) 0 | kinase-Nluc reporter destabilization hit call (ZAP70) 0

Cn1cnc(-c2cc3nccc(Oc4ccc(NC(=S)NC(=O)Cc5ccccc5)cc4F)c3s2)c1 [MGCD-265 analog] (10 µM)
inactive: kinase-Nluc reporter destabilization hit call (STK38) 0 | kinase-Nluc reporter destabilization hit call (SYK) 0 | kinase-Nluc reporter destabilization hit call (TEC) 0 | kinase-Nluc reporter destabilization hit call (TYK2) 0 | kinase-Nluc reporter destabilization hit call (ULK3) 0 | kinase-Nluc reporter destabilization hit call (YES1) 0 | kinase-Nluc reporter destabilization hit call (ZAK) 0 | kinase-Nluc reporter destabilization hit call (ZAP70) 0
4: number of time points (ABL1)
0: number of time points (AKT1)

COC1(c2sc3c(N4CCOCC4)nc(-c4cnc(N)nc4)nc3c2C)COC1 (2.5 µM)
0: number of time points (ABL1) | number of time points (AKT1)
inactive: kinase-Nluc reporter destabilization hit call (STK38) 0 | kinase-Nluc reporter destabilization hit call (SYK) 0 | kinase-Nluc reporter destabilization hit call (TEC) 0 | kinase-Nluc reporter destabilization hit call (TYK2) 0 | kinase-Nluc reporter destabilization hit call (ULK3) 0 | kinase-Nluc reporter destabilization hit call (YES1) 0 | kinase-Nluc reporter destabilization hit call (ZAK) 0 | kinase-Nluc reporter destabilization hit call (ZAP70) 0

CS(=O)(=O)c1ccc(-c2cnc(N)c(C(=O)Nc3ccccc3)n2)cc1 (10 µM)
0: number of time points (ABL1) | number of time points (AKT1)
inactive: kinase-Nluc reporter destabilization hit call (STK38) 0 | kinase-Nluc reporter destabilization hit call (SYK) 0 | kinase-Nluc reporter destabilization hit call (TEC) 0 | kinase-Nluc reporter destabilization hit call (TYK2) 0 | kinase-Nluc reporter destabilization hit call (ULK3) 0 | kinase-Nluc reporter destabilization hit call (YES1) 0 | kinase-Nluc reporter destabilization hit call (ZAK) 0 | kinase-Nluc reporter destabilization hit call (ZAP70) 0

Looked up by compound from above, 2 records:
C=C1C(=O)O[C@@H]2C[C@@]3(C)CCC[C@H](C)C3=C[C@H]12 [Alantolactone] (10 µM)
0: number of time points (ABL1) | number of time points (AKT1)
inactive: kinase-Nluc reporter destabilization hit call (STK38) 0 | kinase-Nluc reporter destabilization hit call (SYK) 0 | kinase-Nluc reporter destabilization hit call (TEC) 0 | kinase-Nluc reporter destabilization hit call (TYK2) 0 | kinase-Nluc reporter destabilization hit call (ULK3) 0 | kinase-Nluc reporter destabilization hit call (YES1) 0 | kinase-Nluc reporter destabilization hit call (ZAK) 0 | kinase-Nluc reporter destabilization hit call (ZAP70) 0

COC1(c2sc3c(N4CCOCC4)nc(-c4cnc(N)nc4)nc3c2C)COC1 (2.5 µM)
0: number of time points (ABL1) | number of time points (AKT1)
inactive: kinase-Nluc reporter destabilization hit call (STK38) 0 | kinase-Nluc reporter destabilization hit call (SYK) 0 | kinase-Nluc reporter destabilization hit call (TEC) 0 | kinase-Nluc reporter destabilization hit call (TYK2) 0 | kinase-Nluc reporter destabilization hit call (ULK3) 0 | kinase-Nluc reporter destabilization hit call (YES1) 0 | kinase-Nluc reporter destabilization hit call (ZAK) 0 | kinase-Nluc reporter destabilization hit call (ZAP70) 0

Carrying on.

Nc1ncnc2c1c(-c1ccc(Oc3ccccc3)cc1)nn2C1CCNCC1 [N-piperidine Ibrutinib (hydrochloride)] (10 µM)
inactive: kinase-Nluc reporter destabilization hit call (STK38) 0 | kinase-Nluc reporter destabilization hit call (SYK) 0 | kinase-Nluc reporter destabilization hit call (TEC) 0 | kinase-Nluc reporter destabilization hit call (TYK2) 0 | kinase-Nluc reporter destabilization hit call (ULK3) 0 | kinase-Nluc reporter destabilization hit call (YES1) 0 | kinase-Nluc reporter destabilization hit call (ZAK) 0 | kinase-Nluc reporter destabilization hit call (ZAP70) 0
0: number of time points (ABL1) | number of time points (AKT1)

NC1(Cc2ccc(Cl)cc2)CCN(c2ncnc3[nH]ccc23)CC1 (10 µM)
2: number of time points (ABL1)
0: number of time points (AKT1)
inactive: kinase-Nluc reporter destabilization hit call (STK38) 0 | kinase-Nluc reporter destabilization hit call (SYK) 0 | kinase-Nluc reporter destabilization hit call (TEC) 0 | kinase-Nluc reporter destabilization hit call (TYK2) 0 | kinase-Nluc reporter destabilization hit call (ULK3) 0 | kinase-Nluc reporter destabilization hit call (YES1) 0 | kinase-Nluc reporter destabilization hit call (ZAK) 0 | kinase-Nluc reporter destabilization hit call (ZAP70) 0

CC(C)CC1(O)CCN(C(=O)c2ccc(NS(=O)(=O)c3cccc4nccnc34)cc2)CC1 (10 µM)
inactive: kinase-Nluc reporter destabilization hit call (STK38) 0 | kinase-Nluc reporter destabilization hit call (SYK) 0 | kinase-Nluc reporter destabilization hit call (TEC) 0 | kinase-Nluc reporter destabilization hit call (TYK2) 0 | kinase-Nluc reporter destabilization hit call (ULK3) 0 | kinase-Nluc reporter destabilization hit call (YES1) 0 | kinase-Nluc reporter destabilization hit call (ZAK) 0 | kinase-Nluc reporter destabilization hit call (ZAP70) 0
0: number of time points (ABL1) | number of time points (AKT1)

COC1(C(=O)N2Cc3nc(Cl)nc(N[C@H](C)c4cc(N)cc(C(F)(F)F)c4)c3C2)CCOCC1 (10 µM)
inactive: kinase-Nluc reporter destabilization hit call (STK38) 0 | kinase-Nluc reporter destabilization hit call (SYK) 0 | kinase-Nluc reporter destabilization hit call (TEC) 0 | kinase-Nluc reporter destabilization hit call (TYK2) 0 | kinase-Nluc reporter destabilization hit call (ULK3) 0 | kinase-Nluc reporter destabilization hit call (YES1) 0 | kinase-Nluc reporter destabilization hit call (ZAK) 0 | kinase-Nluc reporter destabilization hit call (ZAP70) 0
0: number of time points (ABL1) | number of time points (AKT1)

C[C@]1(O)CCC[C@@H]1n1c(=O)c(C(F)F)cc2cnc(NC3CCN(S(C)(=O)=O)CC3)nc21 (10 µM)
inactive: kinase-Nluc reporter destabilization hit call (STK38) 0 | kinase-Nluc reporter destabilization hit call (SYK) 0 | kinase-Nluc reporter destabilization hit call (TEC) 0 | kinase-Nluc reporter destabilization hit call (TYK2) 0 | kinase-Nluc reporter destabilization hit call (ULK3) 0 | kinase-Nluc reporter destabilization hit call (YES1) 0 | kinase-Nluc reporter destabilization hit call (ZAK) 0 | kinase-Nluc reporter destabilization hit call (ZAP70) 0
0: number of time points (ABL1) | number of time points (AKT1)
